These results are taken from paper PMC13393275.

Results are given in words; binding and its absence hold for the method and conditions named. In cells and extracts the contact can be indirect. A yes stands for co-enrichment or nearness to the bait. Other partners may have been found.

The target in the experiment is T1, FRS2-mNeonGreen (human) (UniProt Q8WU20).
T1 sequence: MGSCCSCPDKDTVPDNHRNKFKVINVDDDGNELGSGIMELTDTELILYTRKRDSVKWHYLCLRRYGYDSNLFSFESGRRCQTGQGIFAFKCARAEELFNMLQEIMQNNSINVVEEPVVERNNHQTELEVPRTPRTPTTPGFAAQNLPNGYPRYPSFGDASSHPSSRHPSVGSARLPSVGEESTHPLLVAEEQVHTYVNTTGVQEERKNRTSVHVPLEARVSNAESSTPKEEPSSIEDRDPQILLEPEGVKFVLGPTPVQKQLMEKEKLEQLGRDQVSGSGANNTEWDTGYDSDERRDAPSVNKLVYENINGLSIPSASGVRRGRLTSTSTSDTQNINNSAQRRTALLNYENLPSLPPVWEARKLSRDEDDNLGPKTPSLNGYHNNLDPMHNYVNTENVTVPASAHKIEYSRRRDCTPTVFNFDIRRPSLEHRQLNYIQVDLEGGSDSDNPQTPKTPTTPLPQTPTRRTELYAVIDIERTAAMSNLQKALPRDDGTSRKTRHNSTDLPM
Put plainly: affinity purification with mass spectrometry; mNeonGreen-Trap IP from bFGF-stimulated (50 ng/mL, 5 min) UW228 FRS2-mNG cells against UW228 WT; on-bead digestion, DIA LC-MS/MS, SAINTexpress; hits log2FC >= 1 and bFDR <= 0.05; n = 3.

B1: Eukaryotic translation initiation factor 5B (protein, UniProt O60841 1-1220)
chain: MGKKQKNKSEDSTKDDIDLDALAAEIEGAGAAKEQEPQKSKGKKKKEKKKQDFDEDDILKELEELSLEAQGIKADRETVAVKPTENNEEEFTSKDKKKKGQKGKKQSFDDNDSEELEDKDSKSKKTAKPKVEMYSGSDDDDDFNKLPKKAKGKAQKSNKKWDGSEEDEDNSKKIKERSRINSSGESGDESDEFLQSRKGQKKNQKNKPGPNIESGNEDDDASFKIKTVAQKKAEKKERERKKRDEEKAKLRKLKEKEELETGKKDQSKQKESQRKFEEETVKSKVTVDTGVIPASEEKAETPTAAEDDNEGDKKKKDKKKKKGEKEEKEKEKKKGPSKATVKAMQEALAKLKEEEERQKREEEERIKRLEELEAKRKEEERLEQEKRERKKQKEKERKERLKKEGKLLTKSQREARARAEATLKLLQAQGVEVPSKDSLPKKRPIYEDKKRKKIPQQLESKEVSESMELCAAVEVMEQGVPEKEETPPPVEPEEEEDTEDAGLDDWEAMASDEETEKVEGNKVHIEVKENPEEEEEEEEEEEEDEESEEEEEEEGESEGSEGDEEDEKVSDEKDSGKTLDKKPSKEMSSDSEYDSDDDRTKEERAYDKAKRRIEKRRLEHSKNVNTEKLRAPIICVLGHVDTGKTKILDKLRHTHVQDGEAGGITQQIGATNVPLEAINEQTKMIKNFDRENVRIPGMLIIDTPGHESFSNLRNRGSSLCDIAILVVDIMHGLEPQTIESINLLKSKKCPFIVALNKIDRLYDWKKSPDSDVAATLKKQKKNTKDEFEERAKAIIVEFAQQGLNAALFYENKDPRTFVSLVPTSAHTGDGMGSLIYLLVELTQTMLSKRLAHCEELRAQVMEVKALPGMGTTIDVILINGRLKEGDTIIVPGVEGPIVTQIRGLLLPPPMKELRVKNQYEKHKEVEAAQGVKILGKDLEKTLAGLPLLVAYKEDEIPVLKDELIHELKQTLNAIKLEEKGVYVQASTLGSLEALLEFLKTSEVPYAGINIGPVHKKDVMKASVMLEHDPQYAVILAFDVRIERDAQEMADSLGVRIFSAEIIYHLFDAFTKYRQDYKKQKQEEFKHIAVFPCKIKILPQYIFNSRDPIVMGVTVEAGQVKQGTPMCVPSKNFVDIGIVTSIEINHKQVDVAKKGQEVCVKIEPIPGESPKMFGRHFEATDILVSKISRQSIDALKDWFRDEMQKSDWQLIVELKKVFEII
For the molecule B1, the binding entry is “binds”.

B2: Phospholipid-transporting ATPase IG (protein, UniProt Q8NB49 1-1132)
chain: MQMVPSLPPASECAGEEKRVGTRTVFVGNHPVSETEAYIAQRFCDNRIVSSKYTLWNFLPKNLFEQFRRIANFYFLIIFLVQVTVDTPTSPVTSGLPLFFVITVTAIKQGYEDCLRHRADNEVNKSTVYIIENAKRVRKESEKIKVGDVVEVQADETFPCDLILLSSCTTDGTCYVTTASLDGESNCKTHYAVRDTIALCTAESIDTLRAAIECEQPQPDLYKFVGRINIYSNSLEAVARSLGPENLLLKGATLKNTEKIYGVAVYTGMETKMALNYQGKSQKRSAVEKSINAFLIVYLFILLTKAAVCTTLKYVWQSTPYNDEPWYNQKTQKERETLKVLKMFTDFLSFMVLFNFIIPVSMYVTVEMQKFLGSFFISWDKDFYDEEINEGALVNTSDLNEELGQVDYVFTDKTGTLTENSMEFIECCIDGHKYKGVTQEVDGLSQTDGTLTYFDKVDKNREELFLRALCLCHTVEIKTNDAVDGATESAELTYISSSPDEIALVKGAKRYGFTFLGNRNGYMRVENQRKEIEEYELLHTLNFDAVRRRMSVIVKTQEGDILLFCKGADSAVFPRVQNHEIELTKVHVERNAMDGYRTLCVAFKEIAPDDYERINRQLIEAKMALQDREEKMEKVFDDIETNMNLIGATAVEDKLQDQAAETIEALHAAGLKVWVLTGDKMETAKSTCYACRLFQTNTELLELTTKTIEESERKEDRLHELLIEYRKKLLHEFPKSTRSFKKAWTEHQEYGLIIDGSTLSLILNSSQDSSSNNYKSIFLQICMKCTAVLCCRMAPLQKAQIVRMVKNLKGSPITLSIGDGANDVSMILESHVGIGIKGKEGRQAARNSDYSVPKFKHLKKLLLAHGHLYYVRIAHLVQYFFYKNLCFILPQFLYQFFCGFSQQPLYDAAYLTMYNICFTSLPILAYSLLEQHINIDTLTSDPRLYMKISGNAMLQLGPFLYWTFLAAFEGTVFFFGTYFLFQTASLEENGKVYGNWTFGTIVFTVLVFTVTLKLALDTRFWTWINHFVIWGSLAFYVFFSFFWGGIIWPFLKQQRMYFVFAQMLSSVSTWLAIILLIFISLFPEILLIVLKNVRRRSARRNLSCRRASDSLSARPSVRPLLLRTFSDESNVL
B2: the binding entry is reported as “binds”.

B3: Anion exchange protein 2 (protein, UniProt P04920 1-1241)
chain: MSSAPRRPAKGADSFCTPEPESLGPGTPGFPEQEEDELHRTLGVERFEEILQEAGSRGGEEPGRSYGEEDFEYHRQSSHHIHHPLSTHLPPDARRRKTPQGPGRKPRRRPGASPTGETPTIEEGEEDEDEASEAEGARALTQPSPVSTPSSVQFFLQEDDSADRKAERTSPSSPAPLPHQEATPRASKGAQAGTQVEEAEAEAVAVASGTAGGDDGGASGRPLPKAQPGHRSYNLQERRRIGSMTGAEQALLPRVPTDEIEAQTLATADLDLMKSHRFEDVPGVRRHLVRKNAKGSTQSGREGREPGPTPRARPRAPHKPHEVFVELNELLLDKNQEPQWRETARWIKFEEDVEEETERWGKPHVASLSFRSLLELRRTLAHGAVLLDLDQQTLPGVAHQVVEQMVISDQIKAEDRANVLRALLLKHSHPSDEKDFSFPRNISAGSLGSLLGHHHGQGAESDPHVTEPLMGGVPETRLEVERERELPPPAPPAGITRSKSKHELKLLEKIPENAEATVVLVGCVEFLSRPTMAFVRLREAVELDAVLEVPVPVRFLFLLLGPSSANMDYHEIGRSISTLMSDKQFHEAAYLADEREDLLTAINAFLDCSVVLPPSEVQGEELLRSVAHFQRQMLKKREEQGRLLPTGAGLEPKSAQDKALLQMVEAAGAAEDDPLRRTGRPFGGLIRDVRRRYPHYLSDFRDALDPQCLAAVIFIYFAALSPAITFGGLLGEKTQDLIGVSELIMSTALQGVVFCLLGAQPLLVIGFSGPLLVFEEAFFSFCSSNHLEYLVGRVWIGFWLVFLALLMVALEGSFLVRFVSRFTQEIFAFLISLIFIYETFYKLVKIFQEHPLHGCSASNSSEVDGGENMTWAGARPTLGPGNRSLAGQSGQGKPRGQPNTALLSLVLMAGTFFIAFFLRKFKNSRFFPGRIRRVIGDFGVPIAILIMVLVDYSIEDTYTQKLSVPSGFSVTAPEKRGWVINPLGEKSPFPVWMMVASLLPAILVFILIFMETQITTLIISKKERMLQKGSGFHLDLLLIVAMGGICALFGLPWLAAATVRSVTHANALTVMSKAVAPGDKPKIQEVKEQRVTGLLVALLVGLSIVIGDLLRQIPLAVLFGIFLYMGVTSLNGIQFYERLHLLLMPPKHHPDVTYVKKVRTLRMHLFTALQLLCLALLWAVMSTAASLAFPFILILTVPLRMVVLTRIFTDREMKCLDANEAEPVFDEREGVDEYNEMPMPV
Consider B3, for which the binding result was “binds”.

B4: Cystathionine beta-synthase (protein, UniProt P35520 1-551)
chain: MPSETPQAEVGPTGCPHRSGPHSAKGSLEKGSPEDKEAKEPLWIRPDAPSRCTWQLGRPASESPHHHTAPAKSPKILPDILKKIGDTPMVRINKIGKKFGLKCELLAKCEFFNAGGSVKDRISLRMIEDAERDGTLKPGDTIIEPTSGNTGIGLALAAAVRGYRCIIVMPEKMSSEKVDVLRALGAEIVRTPTNARFDSPESHVGVAWRLKNEIPNSHILDQYRNASNPLAHYDTTADEILQQCDGKLDMLVASVGTGGTITGIARKLKEKCPGCRIIGVDPEGSILAEPEELNQTEQTTYEVEGIGYDFIPTVLDRTVVDKWFKSNDEEAFTFARMLIAQEGLLCGGSAGSTVAVAVKAAQELQEGQRCVVILPDSVRNYMTKFLSDRWMLQKGFLKEEDLTEKKPWWWHLRVQELGLSAPLTVLPTITCGHTIEILREKGFDQAPVVDEAGVILGMVTLGNMLSSLLAGKVQPSDQVGKVIYKQFKQIRLTDTLGRLSHILEMDHFALVVHEQIQYHSTGKSSQRQMVFGVVTAIDLLNFVAAQERDQK
Turning to B4, the binding result is recorded as “binds”.
